Source: the supplement of paper PMC10849652
This is one part of the list.

By UniProt entry, the sequences of proteins in these tests, tags left out. Where a name states a change or a piece, a line headed by the entry shows the natural chain unless it says otherwise.
UniProt Q9H5J4: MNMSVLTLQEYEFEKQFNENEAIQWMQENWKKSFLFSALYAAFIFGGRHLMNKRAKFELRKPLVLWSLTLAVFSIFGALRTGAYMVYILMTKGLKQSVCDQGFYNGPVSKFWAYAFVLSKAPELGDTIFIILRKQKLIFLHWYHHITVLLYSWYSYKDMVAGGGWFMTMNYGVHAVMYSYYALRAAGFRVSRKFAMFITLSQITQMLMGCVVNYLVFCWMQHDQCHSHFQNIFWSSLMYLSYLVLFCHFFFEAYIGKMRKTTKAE
UniProt O43402: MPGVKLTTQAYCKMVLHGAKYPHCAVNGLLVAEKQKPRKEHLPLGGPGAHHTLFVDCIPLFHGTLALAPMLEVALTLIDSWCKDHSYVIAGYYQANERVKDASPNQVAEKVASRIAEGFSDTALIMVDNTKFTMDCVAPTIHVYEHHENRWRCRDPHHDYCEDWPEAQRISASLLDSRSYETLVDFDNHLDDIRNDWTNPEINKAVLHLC
UniProt O75616: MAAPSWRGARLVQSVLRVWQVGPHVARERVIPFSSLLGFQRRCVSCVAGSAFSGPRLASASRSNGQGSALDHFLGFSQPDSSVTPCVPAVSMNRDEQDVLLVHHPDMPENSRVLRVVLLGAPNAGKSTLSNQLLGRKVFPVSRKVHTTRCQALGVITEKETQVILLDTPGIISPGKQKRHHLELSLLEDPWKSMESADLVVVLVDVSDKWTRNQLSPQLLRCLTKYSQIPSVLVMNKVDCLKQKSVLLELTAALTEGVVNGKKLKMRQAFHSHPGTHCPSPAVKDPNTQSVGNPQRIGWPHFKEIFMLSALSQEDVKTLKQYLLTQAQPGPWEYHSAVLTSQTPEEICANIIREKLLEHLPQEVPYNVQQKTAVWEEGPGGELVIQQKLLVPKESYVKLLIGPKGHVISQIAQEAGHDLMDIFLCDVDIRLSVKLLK
UniProt Q14240, whole entry, looked up: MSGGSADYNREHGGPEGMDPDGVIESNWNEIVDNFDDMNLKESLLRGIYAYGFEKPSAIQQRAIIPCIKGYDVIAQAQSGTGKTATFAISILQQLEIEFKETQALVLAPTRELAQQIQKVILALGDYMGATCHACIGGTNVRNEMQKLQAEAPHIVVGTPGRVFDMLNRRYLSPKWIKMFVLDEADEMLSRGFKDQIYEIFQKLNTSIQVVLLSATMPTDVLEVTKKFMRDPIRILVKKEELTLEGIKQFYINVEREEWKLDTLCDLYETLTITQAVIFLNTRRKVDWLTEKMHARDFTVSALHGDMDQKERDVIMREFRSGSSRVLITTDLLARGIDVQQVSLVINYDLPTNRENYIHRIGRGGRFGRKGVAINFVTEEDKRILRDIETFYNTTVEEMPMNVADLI
UniProt P41091, whole entry, looked up: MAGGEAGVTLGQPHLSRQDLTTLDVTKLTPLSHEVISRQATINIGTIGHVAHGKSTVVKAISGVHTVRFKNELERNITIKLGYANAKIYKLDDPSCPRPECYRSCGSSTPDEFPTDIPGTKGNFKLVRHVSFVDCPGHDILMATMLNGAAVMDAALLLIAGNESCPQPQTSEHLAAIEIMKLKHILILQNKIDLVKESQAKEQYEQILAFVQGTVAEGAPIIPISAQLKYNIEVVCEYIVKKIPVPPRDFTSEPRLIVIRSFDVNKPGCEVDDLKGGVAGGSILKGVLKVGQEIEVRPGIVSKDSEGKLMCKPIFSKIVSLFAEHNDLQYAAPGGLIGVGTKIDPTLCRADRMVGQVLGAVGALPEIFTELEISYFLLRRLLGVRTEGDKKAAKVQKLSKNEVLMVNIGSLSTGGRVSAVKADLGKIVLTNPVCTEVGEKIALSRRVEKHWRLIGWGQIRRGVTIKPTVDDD
UniProt Q9P2K8: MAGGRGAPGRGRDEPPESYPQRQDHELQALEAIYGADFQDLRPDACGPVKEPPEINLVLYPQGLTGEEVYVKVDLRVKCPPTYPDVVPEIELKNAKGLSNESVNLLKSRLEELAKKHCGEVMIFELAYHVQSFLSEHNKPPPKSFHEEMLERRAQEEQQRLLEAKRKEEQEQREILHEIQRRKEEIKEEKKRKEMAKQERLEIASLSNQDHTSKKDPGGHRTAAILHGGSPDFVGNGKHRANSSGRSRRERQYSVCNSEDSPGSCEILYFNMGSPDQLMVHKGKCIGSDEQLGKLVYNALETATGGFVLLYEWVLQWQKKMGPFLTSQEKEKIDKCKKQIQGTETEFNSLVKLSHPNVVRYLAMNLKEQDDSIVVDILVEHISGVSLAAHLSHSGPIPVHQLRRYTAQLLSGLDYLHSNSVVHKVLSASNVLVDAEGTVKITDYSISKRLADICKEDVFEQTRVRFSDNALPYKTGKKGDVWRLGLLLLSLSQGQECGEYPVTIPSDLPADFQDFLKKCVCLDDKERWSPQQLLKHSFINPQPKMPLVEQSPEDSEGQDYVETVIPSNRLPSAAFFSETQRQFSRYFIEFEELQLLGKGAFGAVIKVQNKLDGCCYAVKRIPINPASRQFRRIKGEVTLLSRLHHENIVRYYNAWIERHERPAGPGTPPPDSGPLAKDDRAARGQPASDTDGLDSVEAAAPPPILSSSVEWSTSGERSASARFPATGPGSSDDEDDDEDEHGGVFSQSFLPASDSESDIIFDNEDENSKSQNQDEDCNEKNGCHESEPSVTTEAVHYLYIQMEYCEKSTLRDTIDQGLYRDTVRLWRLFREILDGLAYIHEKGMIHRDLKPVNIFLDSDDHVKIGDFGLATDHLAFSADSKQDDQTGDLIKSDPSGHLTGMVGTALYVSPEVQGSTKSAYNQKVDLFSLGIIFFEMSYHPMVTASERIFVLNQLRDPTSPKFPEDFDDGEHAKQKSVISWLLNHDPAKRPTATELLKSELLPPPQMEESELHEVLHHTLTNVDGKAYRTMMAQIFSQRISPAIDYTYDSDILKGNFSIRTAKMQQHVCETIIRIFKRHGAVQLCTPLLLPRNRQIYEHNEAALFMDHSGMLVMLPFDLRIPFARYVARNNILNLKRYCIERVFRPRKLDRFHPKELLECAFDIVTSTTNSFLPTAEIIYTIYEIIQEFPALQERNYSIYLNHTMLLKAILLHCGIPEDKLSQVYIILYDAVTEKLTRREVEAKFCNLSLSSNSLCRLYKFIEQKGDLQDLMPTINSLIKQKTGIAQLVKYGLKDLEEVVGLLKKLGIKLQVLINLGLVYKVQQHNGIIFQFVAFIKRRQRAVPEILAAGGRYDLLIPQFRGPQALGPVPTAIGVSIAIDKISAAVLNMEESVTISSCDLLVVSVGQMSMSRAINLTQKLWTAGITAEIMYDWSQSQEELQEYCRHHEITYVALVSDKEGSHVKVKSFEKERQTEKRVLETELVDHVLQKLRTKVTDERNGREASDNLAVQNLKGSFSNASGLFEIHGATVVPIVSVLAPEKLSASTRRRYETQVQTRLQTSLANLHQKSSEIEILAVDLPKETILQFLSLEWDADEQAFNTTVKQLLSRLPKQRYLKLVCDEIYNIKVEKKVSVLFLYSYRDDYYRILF
UniProt Q6ZTU2, whole entry, looked up: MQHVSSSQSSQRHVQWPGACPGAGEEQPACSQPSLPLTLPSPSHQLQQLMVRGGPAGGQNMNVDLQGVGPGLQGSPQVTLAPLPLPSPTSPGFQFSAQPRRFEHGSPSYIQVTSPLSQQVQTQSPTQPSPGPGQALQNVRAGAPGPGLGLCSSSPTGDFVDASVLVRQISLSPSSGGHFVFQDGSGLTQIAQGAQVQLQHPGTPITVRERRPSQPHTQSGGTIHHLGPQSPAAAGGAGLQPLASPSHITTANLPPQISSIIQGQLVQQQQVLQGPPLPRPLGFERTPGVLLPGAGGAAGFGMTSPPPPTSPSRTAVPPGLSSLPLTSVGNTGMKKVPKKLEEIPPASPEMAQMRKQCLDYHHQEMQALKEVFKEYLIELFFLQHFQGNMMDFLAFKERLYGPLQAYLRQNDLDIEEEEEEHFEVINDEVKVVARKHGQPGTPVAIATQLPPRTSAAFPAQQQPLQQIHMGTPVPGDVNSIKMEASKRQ
UniProt Q8IZ81: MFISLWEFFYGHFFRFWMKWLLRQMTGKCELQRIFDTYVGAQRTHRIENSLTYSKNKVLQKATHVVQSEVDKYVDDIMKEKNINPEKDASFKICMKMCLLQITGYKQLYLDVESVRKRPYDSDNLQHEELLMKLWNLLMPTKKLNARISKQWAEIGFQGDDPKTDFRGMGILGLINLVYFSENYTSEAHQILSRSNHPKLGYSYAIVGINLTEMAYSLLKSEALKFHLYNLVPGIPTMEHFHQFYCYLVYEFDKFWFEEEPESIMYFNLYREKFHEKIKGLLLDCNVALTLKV
UniProt Q8NFI3: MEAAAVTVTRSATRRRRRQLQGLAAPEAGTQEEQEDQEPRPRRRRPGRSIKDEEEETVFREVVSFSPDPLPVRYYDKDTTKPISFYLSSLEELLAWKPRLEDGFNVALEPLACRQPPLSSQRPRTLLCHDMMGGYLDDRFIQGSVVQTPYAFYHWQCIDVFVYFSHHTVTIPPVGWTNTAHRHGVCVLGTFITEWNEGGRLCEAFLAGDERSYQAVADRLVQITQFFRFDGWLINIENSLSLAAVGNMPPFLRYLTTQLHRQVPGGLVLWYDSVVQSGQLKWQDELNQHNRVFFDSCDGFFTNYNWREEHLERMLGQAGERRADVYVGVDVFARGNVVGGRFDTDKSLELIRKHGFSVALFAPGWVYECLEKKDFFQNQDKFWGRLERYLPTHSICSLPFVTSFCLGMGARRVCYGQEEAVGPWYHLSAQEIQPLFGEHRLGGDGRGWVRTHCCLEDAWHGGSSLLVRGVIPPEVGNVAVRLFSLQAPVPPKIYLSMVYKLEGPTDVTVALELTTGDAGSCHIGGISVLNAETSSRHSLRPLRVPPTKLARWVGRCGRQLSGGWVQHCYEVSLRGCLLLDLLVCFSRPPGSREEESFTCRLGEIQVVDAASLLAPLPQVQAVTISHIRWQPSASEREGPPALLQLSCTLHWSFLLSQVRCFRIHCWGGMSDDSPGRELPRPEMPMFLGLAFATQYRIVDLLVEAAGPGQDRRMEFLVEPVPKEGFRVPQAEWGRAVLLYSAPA
UniProt Q7L775: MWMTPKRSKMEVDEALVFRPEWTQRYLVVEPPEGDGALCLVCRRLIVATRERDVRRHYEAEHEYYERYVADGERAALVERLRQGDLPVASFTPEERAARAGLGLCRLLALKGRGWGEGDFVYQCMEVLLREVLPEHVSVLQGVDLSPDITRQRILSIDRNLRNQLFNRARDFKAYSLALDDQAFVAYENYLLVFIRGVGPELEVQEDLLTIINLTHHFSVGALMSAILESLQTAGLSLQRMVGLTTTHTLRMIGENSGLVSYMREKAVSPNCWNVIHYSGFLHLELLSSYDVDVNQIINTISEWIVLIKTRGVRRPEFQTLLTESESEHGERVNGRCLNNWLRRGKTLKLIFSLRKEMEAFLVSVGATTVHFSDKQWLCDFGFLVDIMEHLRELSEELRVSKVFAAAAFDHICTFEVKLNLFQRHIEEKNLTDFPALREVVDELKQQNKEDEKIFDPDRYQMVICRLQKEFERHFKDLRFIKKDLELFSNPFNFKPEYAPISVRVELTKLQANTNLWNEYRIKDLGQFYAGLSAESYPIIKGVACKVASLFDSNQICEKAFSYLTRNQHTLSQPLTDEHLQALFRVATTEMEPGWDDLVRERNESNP
UniProt P32519: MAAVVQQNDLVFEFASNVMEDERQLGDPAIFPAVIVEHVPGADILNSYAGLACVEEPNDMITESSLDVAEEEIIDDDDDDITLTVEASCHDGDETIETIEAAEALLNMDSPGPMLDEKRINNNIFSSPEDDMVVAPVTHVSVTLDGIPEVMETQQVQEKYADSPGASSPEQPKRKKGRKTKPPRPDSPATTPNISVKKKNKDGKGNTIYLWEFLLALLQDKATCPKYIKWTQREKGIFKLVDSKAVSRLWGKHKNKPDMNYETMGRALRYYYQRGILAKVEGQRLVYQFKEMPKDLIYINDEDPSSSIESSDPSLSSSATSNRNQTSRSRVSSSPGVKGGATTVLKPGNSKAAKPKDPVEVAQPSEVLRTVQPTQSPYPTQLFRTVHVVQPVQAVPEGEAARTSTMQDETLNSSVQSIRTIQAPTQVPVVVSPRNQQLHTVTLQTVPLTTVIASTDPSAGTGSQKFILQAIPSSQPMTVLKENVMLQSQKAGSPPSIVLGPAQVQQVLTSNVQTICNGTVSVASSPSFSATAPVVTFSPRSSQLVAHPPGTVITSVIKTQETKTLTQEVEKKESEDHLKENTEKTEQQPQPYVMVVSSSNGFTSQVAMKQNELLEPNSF
UniProt O60573: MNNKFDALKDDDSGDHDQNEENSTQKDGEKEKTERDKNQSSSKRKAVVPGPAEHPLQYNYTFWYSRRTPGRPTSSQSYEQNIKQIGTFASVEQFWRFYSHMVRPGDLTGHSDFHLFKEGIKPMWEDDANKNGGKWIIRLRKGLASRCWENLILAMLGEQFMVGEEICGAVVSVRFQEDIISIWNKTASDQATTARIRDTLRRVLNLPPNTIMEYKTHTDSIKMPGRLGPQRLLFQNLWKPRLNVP
UniProt P63241: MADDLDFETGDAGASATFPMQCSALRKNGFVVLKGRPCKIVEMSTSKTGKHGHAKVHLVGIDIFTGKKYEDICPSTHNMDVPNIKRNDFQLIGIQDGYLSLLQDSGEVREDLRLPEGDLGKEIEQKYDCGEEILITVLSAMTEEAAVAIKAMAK

Each target was assayed with Cc1cn(-c2cc(NC(=O)c3ccc(C)c(Nc4nccc(-c5cccnc5)n4)c3)cc(C(F)(F)F)c2)cn1 [nilotinib] (assay: log2 fold change, soluble protein after heating vs DMSO (PISA); higher = thermal stabilisation; K562 lysate, 10 uM; active = over 0.2 and 3.5 SD of the protein, either way, in both replicates (recomputed)).
Method in brief: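 Values give the log-two fold change in thermal stability against solvent controls, from duplicates. Crude K562 extract at 1 mg/mL protein, made by dounce homogenisation in PBS pH 7.4 with 1 mM MgCl2, was treated with 10 μM compound for 30 min. After 3 min heating across 48°C-58°C, aliquots were pooled, adjusted to 0.5% NP-40 at 4°C and centrifuged at 21,000xg for 90 min. The supernatant was measured by TMTpro 16plex LC-MS/MS with channel sums equalised.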

log2 fold change, inactive:
ELOVL6 (UniProt Q9H5J4) -0.001
EMC8 (UniProt O43402) 0
ERCC3 (UniProt P19447) -0.024
EIF3D (UniProt O15371) 0.015
ERAL1 (UniProt O75616) 0
EIF4A2 isoform 2 (UniProt Q14240) 0.036
ERC1 (UniProt X6RLX0) 0.024
EMG1 (UniProt Q92979) 0.023
ENPP3 (UniProt O14638) 0.099
EIF2S3 (UniProt P41091) 0.016
EIF2B2 (UniProt P49770) 0.017
ELMO2 (UniProt Q96JJ3) 0.099
EPB41 (UniProt P11171) -0.01
EIF2AK4 (UniProt Q9P2K8) -0.022
EP400P1 isoform 6 (UniProt Q6ZTU2) 0.15
ELMOD2 (UniProt Q8IZ81) -0.056
ELAVL4 (UniProt P26378) -0.07
ENGASE (UniProt Q8NFI3) 0.02
EPM2AIP1 (UniProt Q7L775) 0.035
ELF1 (UniProt P32519) 0.014
EIF4E2 (UniProt O60573) 0.007
EIF5A isoform 2 (UniProt P63241) 0.025
EIF4EBP2 (UniProt Q13542) 0.009

Quoted from above (2 entries):
log2 fold change, inactive:
EMC8 (UniProt O43402) 0
ERCC3 (UniProt P19447) -0.024
